Measured data: PubChem BioAssay AID504764 (Drosophila RNAi Screening Center, 2011)

- Test: 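Knock-downs that raise or lower a Notch target reporter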 (primary screen)
- Cells: Drosophila Kc167 cells
- Knock-down reagent: long dsRNA against Drosophila genes
- Time to read-out: about 5 days (4 days dsRNA, then 24 h after transfection)
- Conditions: transfection of constitutively active membrane-tethered Notch lacking the extracellular domain, read 24 h later
- Detection: 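Firefly luciferase from an E(spl)m3 reporter with active Notch, plus control-promoter and uninduced reporter wells for normalisation; unnormalised counts, duplicate wells a and b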
- Reading the numbers: induced reporter light, run 1, well a and induced reporter light, run 1, well b: higher = more light from the Notch target reporter with active Notch; control promoter light, run 1, well a and control promoter light, run 1, well b: higher = more light from the viral control promoter (cell number, transfection, viability); uninduced reporter light, run 1, well a: higher = more light from the Notch target reporter without active Notch
- Active means: 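Wells with low control signal or poorly matching duplicates excluded; duplicates averaged; per source plate, z beyond ±2 for induced/control log2 ratio or beyond ±1.8 for induced/uninduced marks a hit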
- Meaning of the calls: active = modifier hit (raised or lowered Notch signal); inactive = not a hit
In all, the deposit lists about 22,000 reagents; below is a random part of those that have a named target and a result. Over the whole deposit, 403 (1.9%) are marked active. 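Unnormalised raw counts per well; ratio z-scores behind the hit calls and whether each hit raises or lowers signal are not deposited.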 Names joined by + are all predicted targets of the reagent. Reagent sequences are not shown. Not stated in the record: the amount of reagent.

predicted target	DRSC id	induced reporter light, run 1, well a	induced reporter light, run 1, well b	control promoter light, run 1, well a	control promoter light, run 1, well b	uninduced reporter light, run 1, well a	Call
CG7715	DRSC16301	1.74e5	1.74e5	1.76e5	1.59e5	12705	inactive
Boh2 (Buddy of Hmr 2)	DRSC02777	1.12e5	1.51e5	67735	1.07e5	17505	inactive
CG11807	DRSC06087	60330	1.17e5	1.56e5	2.50e5	11460	inactive
stv (starvin)	DRSC09796	59600	80765	40570	64710	8515	inactive
stv (starvin)	DRSC10111	71030	53475	77035	70715	4795	inactive
CG10283	DRSC02034	2.92e5	2.64e5	2.44e5	2.44e5	18145	inactive
CG15036	DRSC17968	74240	99195	1.63e5	1.35e5	8195	inactive
CG4835	DRSC10452	2.57e5	2.62e5	1.92e5	2.21e5	16520	inactive
Polr3K + Tcs1	DRSC05988	1.75e5	1.97e5	3.21e5	3.85e5	13570	inactive
Kdm2 (Lysine demethylase 2)	DRSC14286	2.28e5	2.20e5	1.30e5	1.36e5	14790	inactive
Ocrl (Oculocerebrorenal syndrome of Lowe)	DRSC18576	1.72e5	1.91e5	2.60e5	2.63e5	12945	inactive
serp (serpentine)	DRSC11035	92395	92660	96045	69135	10365	inactive
serp (serpentine)	DRSC11036	45505	46445	33890	33615	4235	inactive

The list goes on (2 carried over from the part before).
predicted target	DRSC id	induced reporter light, run 1, well a	induced reporter light, run 1, well b	control promoter light, run 1, well a	control promoter light, run 1, well b	uninduced reporter light, run 1, well a	Call
serp (serpentine)	DRSC11035	92395	92660	96045	69135	10365	inactive
serp (serpentine)	DRSC11036	45505	46445	33890	33615	4235	inactive
SmD3 (Small ribonucleoprotein particle protein SmD3)	DRSC07553	39955	44225	61035	61195	3910	inactive
CG8012	DRSC10951	1.42e5	1.33e5	1.31e5	1.09e5	8345	inactive
ms(3)K81 (male sterile (3) K81)	DRSC14746	1.64e5	1.08e5	2.00e5	1.97e5	11320	inactive
Atg4a (Autophagy-related 4a)	DRSC00656	96675	1.03e5	1.09e5	1.14e5	8590	inactive
Prosbeta5 (Proteasome beta5 subunit)	DRSC07517	17315	19800	23690	27075	2015	inactive
Muc18B (Mucin 18B)	DRSC20064	72035	80995	91100	1.20e5	10335	inactive
Muc18B (Mucin 18B)	DRSC21644						inactive
